# Laboratory results taken from the supplement of paper PMC10338343.
# ± gives the standard deviation. The list shows a part of the results, in another mix than the full data. Many entries were measured with a wide error.
# Tested on: MILI (PIWIL2) piRISC loaded with Kctd7 piRNA (26 nt)
# Experiment: pre-steady-state target cleavage rate (min^-1); MIWI and MILI are mouse PIWI proteins and EfPiwi is from a freshwater sponge; tags in brackets are library labels; higher = faster piRNA-guided slicing of the target
# Conditions: guide: Kctd7 piRNA 5'p-UGUUAAUCUCUCAGAGAAGGUGACAG; auxiliary factor: 500 nM mouse GTSF1
# Method in brief: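 The method was Cleave-'n-Seq, in which uncleaved targets from a transcribed, DNA-blocked target RNA library were sequenced after exposure to active affinity-purified piRISC carrying one synthetic guide, with or without GTSF1 partner protein. Reactions contained 0.1 nM library, 1 nM piRISC and, where present, 500 nM GTSF1 in HEPES–potassium acetate buffer at 33 °C for 0–8 or 0–960 min. Reads were normalised to depth and to weakly complementary targets, three trials were pooled, and k3 was capped at 0.0001 min^-1. The pre-steady-state cleavage rate came from a burst-and-steady-state fit.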
row,Sequence,pre-steady-state target cleavage rate
1,UAGUCUGUCACCAAGUCUGAGAGAUUAUGA,0.00112 ± 0.0069
2,UAGUGAGUACACCUUCUCUGAGAGAUUAACA,0.237 ± 0.019
3,UAGUGACAGUGGUUCUCUGAGAGAUUCACA,0.000545 ± 0.0099
4,UAGUGACAGACCUACUCUGAGAGAAUAACA,0.00113 ± 0.0074
5,UAGUGACAGUGGAAGACUGAGAGAUGUAACA,0.000199 ± 0.011
6,UAGUGACAGACCUUGAGUGAGAGAUUAAGA,0.000293 ± 0.04
7,UAGUGAGUCACCUUCUCUGAGUCAUUAACA,0.00255 ± 0.0046
8,UAGUGACACACCUUCUCUGAGAGAAAUACA,0.0296 ± 0.013
9,UAGUGACAGUGGAUCUCUGAGACAUUAUCA,0.000139 ± 0.034
10,UAGUGACAGUGGUUCUCUGAGAGAUUACACA,0.000483 ± 0.0099
11,UAGUGACAGACCUUCUCACUGAGAUUAACA,0.000552 ± 0.018
12,UAGUGACAGUGGUUCUCUGAGAGCAUUAACA,0.00145 ± 0.0038
13,UAGUGUGUCACCUUCUCUGAGAGAAUUAACA,0.277 ± 0.048
14,UAGUGAGUCACCUUCUCUGACUCAUUAACA,0.000778 ± 0.016
15,UAGUGACAGUGGAAGAGUCAGAGAUUAUCA,0.000267 ± 0.025
16,UAGUGACAGACCUUCUCUGAAGAUUAACA,0.000839 ± 0.0096
17,UAGUGACUCAUCCUUCUCUGAGAGAUUAACA,0.0582 ± 0.0061
18,UAGUGAGUCACCUUCUUUGAGAGAUUAACA,0.334 ± 0.029
19,UAGUGACAGUGGUUCUCUGAGAAGAUUAACA,0.00181 ± 0.0048
20,UAGUGACAGUGGAAGACUGGGAGAUUAACA,0.000275 ± 0.0092
21,UAGUGACAGUGGAAGUCUGGGAGAUUAACA,0.000817 ± 0.0031
22,UAGUGACAGUGCUUCUCUGAGAGAAUAUCA,0.00023 ± 0.011
23,UAGUGACAGUGGUUCUCUGAGAGAUUUAACA,0.000253 ± 0.01

# Reformatted with bars between the fields: entries from further up
row | Sequence | pre-steady-state target cleavage rate
5 | UAGUGACAGUGGAAGACUGAGAGAUGUAACA | 0.000199 ± 0.011
17 | UAGUGACUCAUCCUUCUCUGAGAGAUUAACA | 0.0582 ± 0.0061
18 | UAGUGAGUCACCUUCUUUGAGAGAUUAACA | 0.334 ± 0.029

# Continued.

row,Sequence,pre-steady-state target cleavage rate
1,UAGUGACAGUGGAUUCUGAGAGAUUAACA,0.00128 ± 0.0041
2,UAGUGACAGUGGAACUCUGAGAGAUUUAACA,0.000233 ± 0.023
3,UAGUGACAGUGGAACUCUGAGAGCAUUAACA,0.000388 ± 0.014
4,UAGUGAGUCACCUUCUCUGAGAUAUUAACA,0.115 ± 0.017
5,UAGUGACAGUGGAUGUCUGUGAGAUUAACA,0.000192 ± 0.013
6,UAGUGACAGUGCUUCUCUCAGUGAUUAACA,0.00178 ± 0.0033
7,UAGUGACACACGUUCUCUGAGUGAUUAACA,0.00155 ± 0.0053
8,UAGUGACUCACCUUGACUGAGAGAUUAUGA,0.000524 ± 0.022
9,UAGUGACAGUCCUUCACUGAGAGUUUAACA,0.00149 ± 0.0064
10,UAGUGAGUCAGGUUCUCUGAGAGAUUUUGA,0.00194 ± 0.0052
11,UAGUCUGUCACCUUCUUCUGAGAGAUUAACA,0.0864 ± 0.021
12,UAGUGACACACCUUCAGAGAGAGAUUAACA,0.00385 ± 0.0052
13,UAGUGACAGUGGAUCACUGAGUGAUUAACA,0.000454 ± 0.0097
14,UAGUGAGUCUGCUUCUCUGAGAGAUUUUGA,0.00063 ± 0.0077
15,UAGUGACUCACCUUCUCUGAGAAUUAACA,0.0014 ± 0.0077
16,UAGUGACAGUGCUUCUCAGAGUGAUUAACA,0.00286 ± 0.0029
17,UAGUGACAGUGGUUGUCUGAGAGAUAAACA,0.000152 ± 0.037
18,UAGUCUGUCAGCUUCUCUGACAGAUUAACA,0.00105 ± 0.01
19,UAGUGACAGUGGUUCUCUGAGAGUAUUAACA,0.000508 ± 0.0056
20,UAGUGACAGUGGAUGUCUGAGUGAUUAACA,0.000183 ± 0.013
21,UAGUGACUCACCUUCUCUGAGACUAUAACA,0.00164 ± 0.0074
22,UAGUGACUCACCUUCUCUGAGAGAUGUAACA,0.172 ± 0.028
23,UAGUGACAGUCCUUCUCUGAGAGAAUAACA,0.00233 ± 0.0043
